This note sets out measurements from US5422341A (Ohmeda Pharmaceutical Products Division Inc., priority 1993, dated 1995).

The nature of data set [1]: general procedure: Fmoc solid-phase peptide synthesis in flow; PAL resin; Fmoc amino acid Pfp esters with HOBt (Thr as ODhbt ester). Particulars: whole synthesis, trifluoroacetate salt.
Data set [2] in a line: general procedure: Fmoc solid-phase peptide synthesis in flow; NovaSynPR 500 resin; Fmoc-L-Gln(Mbh) PepSyn KA resin; PAL resin; Fmoc amino acid Pfp esters with HOBt (Thr as ODhbt ester). The note with it: whole synthesis; for final HPLC purity: 214 nm; for final HPLC purity / isolated yield: scale of the general procedure 0.2 mmole.
Data set [3] is described as follows: general procedure: Fmoc solid-phase peptide synthesis in flow; Fmoc-L-Gln(Mbh)PepSyn KA resin; Fmoc amino acid Pfp esters with HOBt (Thr as ODhbt ester). Particulars: whole synthesis, trifluoroacetate salt.
The nature of data set [4]: general procedure: Fmoc solid-phase peptide synthesis in flow; FMOC-L-Gln-(Mbh) PepSynKA resin; Fmoc amino acid Pfp esters with HOBt (Thr as ODhbt ester). The note with it: whole synthesis, scale 0.2 mmole, Bis-trifluoroacetate salt.
[5] abbreviates: scale of the general procedure 0.2 mmole.

For part of these data: Some peptides are written in HELM: one residue between dots, names in brackets for other building blocks, links after the first $. A value given as a limit tells only on which side of the number the result lay.

In the case of “PEPTIDE1{[MeF].V.A.I.F.T.Y.G.E.L.A.[dR].L.[dK].[am]}$$$$V2.0”, in data set [1] (setting [5]), the crude yield stood at 91%. In data set [1], the crude mass is on record as 210 mg. Further, in data set [2] (trifluoroacetate salt), the “final HPLC purity” value is >95% and the isolated yield is 36%. In data set [2] (Tris-trifluoroacetate salt), the isolated mass is listed as 82 mg.

For the substance “PEPTIDE1{F.V.P.I.F.T.Y.G.E.L.Q.[dR].L.Q}$$$$V2.0”, in data set [3] (setting [5]), the crude yield was 85%. In addition, the crude mass in data set [3] worked out at 320 mg. In data set [2] (trifluoroacetate salt), the “final HPLC purity” value is recorded as >95% and the isolated yield was determined as 28%. Moreover, the isolated mass in data set [2] (Bis-trifluoroacetate salt) is 107 mg.

For the substance “(Me3 N^+)-Phe-Val-Pro-Ile-Phe-Thr-Tyr-Gly-Glu-Leu-Gln-Arg-Leu-Gln-OH”, the isolated mass in data set [4] stood at 71 mg. Moreover, the “final purity (method not given)” value in data set [2] (analytical HPLC (214 nm) and capillary zone electrophoresis, scale 0.2 mmole, trifluoroacetate salt) is listed as >95%.
